Test results published in PMC8981650.
Results are given in words; binding and its absence hold for the method and conditions named. Binding seen in cells or lysates may run through a third protein. Some entries that bind do so weakly or less than the wild type.

Protein sequences, listed by entry. Tags and fused reporters are not part of them.
UniProt Q99L02: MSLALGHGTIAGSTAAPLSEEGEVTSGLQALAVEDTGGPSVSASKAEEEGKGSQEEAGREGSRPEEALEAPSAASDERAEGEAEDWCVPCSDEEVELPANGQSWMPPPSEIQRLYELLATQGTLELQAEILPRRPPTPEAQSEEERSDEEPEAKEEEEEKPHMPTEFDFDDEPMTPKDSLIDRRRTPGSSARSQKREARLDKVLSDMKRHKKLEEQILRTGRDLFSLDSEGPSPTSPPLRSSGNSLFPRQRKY
UniProt P05627: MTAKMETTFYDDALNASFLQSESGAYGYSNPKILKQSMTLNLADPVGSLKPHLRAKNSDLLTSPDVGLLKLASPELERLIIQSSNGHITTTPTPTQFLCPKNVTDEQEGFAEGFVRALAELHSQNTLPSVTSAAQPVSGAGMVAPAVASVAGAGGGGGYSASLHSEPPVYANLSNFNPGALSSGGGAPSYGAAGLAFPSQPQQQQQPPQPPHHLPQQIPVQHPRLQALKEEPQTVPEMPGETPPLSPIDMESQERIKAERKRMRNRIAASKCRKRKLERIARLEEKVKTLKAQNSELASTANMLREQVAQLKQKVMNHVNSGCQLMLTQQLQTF

How the values were obtained:
[1] = target: endogenous PA1 of TM4 Sertoli cells (mouse (endogenous in TM4)) (UniProt Q99L02); assay: co-IP; TM4 cells in 6-well plate transfected with 0.5 ug pCS2-Myc-Jun; endogenous PA1 precipitated with PA1 antibody; blotted with anti-PA1 and anti-JUN
[2] = target: Flag-PA1 (Pax transactivation domain-interacting protein (PTIP) associated protein 1), mouse, from pRK-Flag-Pa1 (mouse) (UniProt Q99L02); assay: co-IP; TM4 cells co-transfected with pCS2-Myc-Jun and pRK-Flag-Pa1; lysate in TAP buffer (50 mM HEPES-KOH pH 7.5, 100 mM KCl, 0.1% NP-40); precipitated with anti-FLAG antibody and Protein A-Sepharose at 4 C; blotted with anti-MYC and anti-FLAG

binding [1]: binds
binding [2]: binds
Substance: Myc-JUN, mouse, from pCS2-Myc-Jun (from UniProt P05627 1-334)
